Experimental data: paper PMC3799622
Results are given in words; binding and its absence hold for the method and conditions named. For part of these data: Binding seen in cells or lysates may run through a third protein. Some results given as binding are weak or reduced against the parent protein; the word gives no strength. For part of these data: Sequences can lack the tags named with a protein.

Chains of the proteins cited; added tags and fusions are not shown.
UniProt P0C0S5: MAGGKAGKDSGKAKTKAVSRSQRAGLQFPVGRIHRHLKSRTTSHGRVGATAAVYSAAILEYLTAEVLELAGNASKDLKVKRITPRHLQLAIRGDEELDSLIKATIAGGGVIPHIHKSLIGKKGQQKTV
UniProt Q96KQ7: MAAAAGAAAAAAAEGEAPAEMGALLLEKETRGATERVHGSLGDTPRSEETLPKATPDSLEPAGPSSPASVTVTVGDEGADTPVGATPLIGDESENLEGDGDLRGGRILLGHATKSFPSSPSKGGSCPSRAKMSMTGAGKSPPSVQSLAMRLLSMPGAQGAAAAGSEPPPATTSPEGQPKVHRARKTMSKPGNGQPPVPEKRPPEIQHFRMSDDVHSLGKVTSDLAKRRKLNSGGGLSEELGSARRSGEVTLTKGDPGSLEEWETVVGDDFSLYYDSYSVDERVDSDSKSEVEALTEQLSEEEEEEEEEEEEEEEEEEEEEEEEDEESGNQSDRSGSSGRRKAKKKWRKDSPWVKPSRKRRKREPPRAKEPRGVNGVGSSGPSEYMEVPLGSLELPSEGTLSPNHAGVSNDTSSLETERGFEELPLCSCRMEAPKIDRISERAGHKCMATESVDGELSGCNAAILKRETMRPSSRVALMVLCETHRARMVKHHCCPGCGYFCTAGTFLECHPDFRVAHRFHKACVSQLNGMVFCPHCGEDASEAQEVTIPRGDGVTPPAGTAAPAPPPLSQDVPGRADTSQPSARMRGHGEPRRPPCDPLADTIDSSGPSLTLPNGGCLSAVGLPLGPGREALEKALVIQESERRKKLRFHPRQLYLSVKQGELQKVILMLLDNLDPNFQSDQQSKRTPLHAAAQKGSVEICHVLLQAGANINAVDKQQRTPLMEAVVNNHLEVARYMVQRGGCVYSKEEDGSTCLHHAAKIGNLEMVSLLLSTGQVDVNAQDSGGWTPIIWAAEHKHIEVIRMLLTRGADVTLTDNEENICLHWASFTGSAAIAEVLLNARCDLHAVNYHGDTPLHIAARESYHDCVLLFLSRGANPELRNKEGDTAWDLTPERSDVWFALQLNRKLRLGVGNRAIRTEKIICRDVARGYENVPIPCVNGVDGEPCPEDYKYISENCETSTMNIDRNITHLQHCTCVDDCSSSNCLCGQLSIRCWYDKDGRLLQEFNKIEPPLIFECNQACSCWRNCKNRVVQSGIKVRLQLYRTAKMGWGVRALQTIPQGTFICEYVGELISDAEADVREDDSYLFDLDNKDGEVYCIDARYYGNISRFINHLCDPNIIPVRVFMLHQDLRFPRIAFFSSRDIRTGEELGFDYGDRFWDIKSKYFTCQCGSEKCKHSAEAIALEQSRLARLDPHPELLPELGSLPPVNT

Assays:
[1] = biological target: SPBP as used in the yeast two-hybrid screen (unpublished results) (human) (UniProt Q9UGU0); test: two-hybrid; yeast two-hybrid screen with SPBP; unpublished results
GST-H2AZ = GST-H2AZ (UniProt P0C0S5); test: pull-down; GST-histones expressed and purified from E. coli incubated with in vitro translated 35S-labeled GFP fusions; SDS-PAGE, PhosphorImager; only the target purified

binding [1] | binding (GST-H2AZ) | Molecule
binds |  | chromatin modulator G9a (from UniProt Q96KQ7 1-1210)
 | binds | GFP-SPBP (1551-1666) (domain or fragment, UniProt Q9UGU0 1551-1666, 35S label) KKQQQPPPPPPQPPQIPEGSADGEPKPKKQRQRRERRKPGAQPRKRKTKQAVPIVEPQEPEIKLKYATQPLDKTDAKNKSFYPYIHVVNKCELGAVCTIINAEEEEQTKLVRGRKG
 | binds | GFP-RAI1(1523-1627) (domain or fragment, UniProt Q7Z5J4 1523-1627, 35S label) QKQPGHTNYSSYSKRKRLTRGRAKNTTSSPCKGRAKRRRQQQVLPLDPAEPEIRLKYISSCKRLRSDSRTPAFSPFVRVEKRDAFTTICTVVNSPGDAPKPHRKP
